Results are given in words; binding and its absence hold for the method and conditions named. Some entries that bind do so weakly or less than the wild type.

This assay deals with T1, MICA (MHC class I chain-related molecule A) on TRAMP-C2-MICA cells (human) (UniProt Q29983).
T1 sequence (looked up): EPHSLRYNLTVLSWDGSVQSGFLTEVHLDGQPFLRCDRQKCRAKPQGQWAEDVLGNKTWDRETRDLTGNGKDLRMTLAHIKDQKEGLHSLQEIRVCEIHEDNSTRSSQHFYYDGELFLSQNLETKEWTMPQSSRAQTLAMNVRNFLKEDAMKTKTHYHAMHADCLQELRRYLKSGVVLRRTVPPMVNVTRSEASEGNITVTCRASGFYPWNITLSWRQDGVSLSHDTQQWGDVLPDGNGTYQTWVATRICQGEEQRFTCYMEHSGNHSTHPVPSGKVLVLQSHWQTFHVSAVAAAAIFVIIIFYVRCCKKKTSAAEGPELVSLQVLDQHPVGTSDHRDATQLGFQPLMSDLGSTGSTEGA
In words: flow cytometry on TRAMP-C2 cells transfected with MICA.

B1: scFv-H9 (scFv)
scFv: MAQVQLQQSGAELVKPGASVKLSCKTSGYTFSNYYMSWLKQMPGQNIEWIGNIYGGNGGTGYNQKFKGKATLTVDKSSSTAYMQLSSLTSEDSAVYFCARGDLYAMDYWGQGTTVTVSSGGGGSGGGGSGGGGSDIVLTQSPSSMSASLGDRVTITCQASQDIGNNLIWFQQKPGKSPRPMIYYATNLANGVPSRFSGSGSGTSYSLTISSMEAEDAATYYCQQWSSNPYTFGGGTKLEIKRAAA
As to B1, the binding result was “binds”.
